Measurements as given in publication doi:10.1101/2022.03.07.483334.
Results are given in words; binding and its absence hold for the method and conditions named. Binding seen in cells or lysates may run through a third protein.

Sequences of proteins named here, by UniProt entry; tags and fusion partners are left off. A change or cut given only in a name is not applied to a line headed by its entry.
UniProt P15976, whole entry, stated change not applied: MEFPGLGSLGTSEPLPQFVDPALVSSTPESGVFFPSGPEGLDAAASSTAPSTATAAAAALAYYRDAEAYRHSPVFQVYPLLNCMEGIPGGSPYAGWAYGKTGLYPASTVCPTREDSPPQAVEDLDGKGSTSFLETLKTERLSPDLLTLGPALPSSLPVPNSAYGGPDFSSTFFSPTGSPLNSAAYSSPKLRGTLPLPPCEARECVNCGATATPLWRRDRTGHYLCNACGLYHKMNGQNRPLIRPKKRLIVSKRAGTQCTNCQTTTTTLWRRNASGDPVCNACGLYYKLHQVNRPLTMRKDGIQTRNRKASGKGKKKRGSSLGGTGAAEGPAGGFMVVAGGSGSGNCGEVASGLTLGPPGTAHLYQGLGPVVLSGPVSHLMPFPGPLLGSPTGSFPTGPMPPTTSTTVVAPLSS

Molecular target: HA-tagged GATA1 (doxycycline-inducible, in CMK cells) (UniProt P15976)
Test: co-IP

binding: no binding
Substance: RUNX1A (in CMK cells, tested with HA-GATA1/GATA1s) (from UniProt Q01196-2)
